In paper doi:10.1101/2021.01.21.427566:

Legend:
Test in all cases: fluorescence anisotropy
[1] = system: Smc (wild type) + ScpA + ScpB; conditions: 1 mM ATP, 2 mM Mg2+
[2] = system: Smc3S(Y944C), M3M cross-link reduced by DTT + ScpA + ScpB; conditions: 1 mM ATP, 2 mM Mg2+, DTT added, little effect on binding
[3] = system: Smc3S(Y944C), M3M cross-linked + ScpA + ScpB; conditions: 1 mM ATP, 2 mM Mg2+, M3M cross-linked arms, binding not substantially hindered

Measured: binding result

TTAGTTGTTCGTAGTGCTCGTCTGGCTCTGGATTACCCGC (double strand) [dsDNA40]
binds: all assays above

The exact form of at least one protein or probe is not confirmed. For part of these data: At least one verdict rests on a figure or table, not on a statement of the authors.
